{
  "sequences": {"note": "Sequences of proteins named here, by UniProt entry; tags and fusion partners are left off.", "UniProt Q5H8C4": "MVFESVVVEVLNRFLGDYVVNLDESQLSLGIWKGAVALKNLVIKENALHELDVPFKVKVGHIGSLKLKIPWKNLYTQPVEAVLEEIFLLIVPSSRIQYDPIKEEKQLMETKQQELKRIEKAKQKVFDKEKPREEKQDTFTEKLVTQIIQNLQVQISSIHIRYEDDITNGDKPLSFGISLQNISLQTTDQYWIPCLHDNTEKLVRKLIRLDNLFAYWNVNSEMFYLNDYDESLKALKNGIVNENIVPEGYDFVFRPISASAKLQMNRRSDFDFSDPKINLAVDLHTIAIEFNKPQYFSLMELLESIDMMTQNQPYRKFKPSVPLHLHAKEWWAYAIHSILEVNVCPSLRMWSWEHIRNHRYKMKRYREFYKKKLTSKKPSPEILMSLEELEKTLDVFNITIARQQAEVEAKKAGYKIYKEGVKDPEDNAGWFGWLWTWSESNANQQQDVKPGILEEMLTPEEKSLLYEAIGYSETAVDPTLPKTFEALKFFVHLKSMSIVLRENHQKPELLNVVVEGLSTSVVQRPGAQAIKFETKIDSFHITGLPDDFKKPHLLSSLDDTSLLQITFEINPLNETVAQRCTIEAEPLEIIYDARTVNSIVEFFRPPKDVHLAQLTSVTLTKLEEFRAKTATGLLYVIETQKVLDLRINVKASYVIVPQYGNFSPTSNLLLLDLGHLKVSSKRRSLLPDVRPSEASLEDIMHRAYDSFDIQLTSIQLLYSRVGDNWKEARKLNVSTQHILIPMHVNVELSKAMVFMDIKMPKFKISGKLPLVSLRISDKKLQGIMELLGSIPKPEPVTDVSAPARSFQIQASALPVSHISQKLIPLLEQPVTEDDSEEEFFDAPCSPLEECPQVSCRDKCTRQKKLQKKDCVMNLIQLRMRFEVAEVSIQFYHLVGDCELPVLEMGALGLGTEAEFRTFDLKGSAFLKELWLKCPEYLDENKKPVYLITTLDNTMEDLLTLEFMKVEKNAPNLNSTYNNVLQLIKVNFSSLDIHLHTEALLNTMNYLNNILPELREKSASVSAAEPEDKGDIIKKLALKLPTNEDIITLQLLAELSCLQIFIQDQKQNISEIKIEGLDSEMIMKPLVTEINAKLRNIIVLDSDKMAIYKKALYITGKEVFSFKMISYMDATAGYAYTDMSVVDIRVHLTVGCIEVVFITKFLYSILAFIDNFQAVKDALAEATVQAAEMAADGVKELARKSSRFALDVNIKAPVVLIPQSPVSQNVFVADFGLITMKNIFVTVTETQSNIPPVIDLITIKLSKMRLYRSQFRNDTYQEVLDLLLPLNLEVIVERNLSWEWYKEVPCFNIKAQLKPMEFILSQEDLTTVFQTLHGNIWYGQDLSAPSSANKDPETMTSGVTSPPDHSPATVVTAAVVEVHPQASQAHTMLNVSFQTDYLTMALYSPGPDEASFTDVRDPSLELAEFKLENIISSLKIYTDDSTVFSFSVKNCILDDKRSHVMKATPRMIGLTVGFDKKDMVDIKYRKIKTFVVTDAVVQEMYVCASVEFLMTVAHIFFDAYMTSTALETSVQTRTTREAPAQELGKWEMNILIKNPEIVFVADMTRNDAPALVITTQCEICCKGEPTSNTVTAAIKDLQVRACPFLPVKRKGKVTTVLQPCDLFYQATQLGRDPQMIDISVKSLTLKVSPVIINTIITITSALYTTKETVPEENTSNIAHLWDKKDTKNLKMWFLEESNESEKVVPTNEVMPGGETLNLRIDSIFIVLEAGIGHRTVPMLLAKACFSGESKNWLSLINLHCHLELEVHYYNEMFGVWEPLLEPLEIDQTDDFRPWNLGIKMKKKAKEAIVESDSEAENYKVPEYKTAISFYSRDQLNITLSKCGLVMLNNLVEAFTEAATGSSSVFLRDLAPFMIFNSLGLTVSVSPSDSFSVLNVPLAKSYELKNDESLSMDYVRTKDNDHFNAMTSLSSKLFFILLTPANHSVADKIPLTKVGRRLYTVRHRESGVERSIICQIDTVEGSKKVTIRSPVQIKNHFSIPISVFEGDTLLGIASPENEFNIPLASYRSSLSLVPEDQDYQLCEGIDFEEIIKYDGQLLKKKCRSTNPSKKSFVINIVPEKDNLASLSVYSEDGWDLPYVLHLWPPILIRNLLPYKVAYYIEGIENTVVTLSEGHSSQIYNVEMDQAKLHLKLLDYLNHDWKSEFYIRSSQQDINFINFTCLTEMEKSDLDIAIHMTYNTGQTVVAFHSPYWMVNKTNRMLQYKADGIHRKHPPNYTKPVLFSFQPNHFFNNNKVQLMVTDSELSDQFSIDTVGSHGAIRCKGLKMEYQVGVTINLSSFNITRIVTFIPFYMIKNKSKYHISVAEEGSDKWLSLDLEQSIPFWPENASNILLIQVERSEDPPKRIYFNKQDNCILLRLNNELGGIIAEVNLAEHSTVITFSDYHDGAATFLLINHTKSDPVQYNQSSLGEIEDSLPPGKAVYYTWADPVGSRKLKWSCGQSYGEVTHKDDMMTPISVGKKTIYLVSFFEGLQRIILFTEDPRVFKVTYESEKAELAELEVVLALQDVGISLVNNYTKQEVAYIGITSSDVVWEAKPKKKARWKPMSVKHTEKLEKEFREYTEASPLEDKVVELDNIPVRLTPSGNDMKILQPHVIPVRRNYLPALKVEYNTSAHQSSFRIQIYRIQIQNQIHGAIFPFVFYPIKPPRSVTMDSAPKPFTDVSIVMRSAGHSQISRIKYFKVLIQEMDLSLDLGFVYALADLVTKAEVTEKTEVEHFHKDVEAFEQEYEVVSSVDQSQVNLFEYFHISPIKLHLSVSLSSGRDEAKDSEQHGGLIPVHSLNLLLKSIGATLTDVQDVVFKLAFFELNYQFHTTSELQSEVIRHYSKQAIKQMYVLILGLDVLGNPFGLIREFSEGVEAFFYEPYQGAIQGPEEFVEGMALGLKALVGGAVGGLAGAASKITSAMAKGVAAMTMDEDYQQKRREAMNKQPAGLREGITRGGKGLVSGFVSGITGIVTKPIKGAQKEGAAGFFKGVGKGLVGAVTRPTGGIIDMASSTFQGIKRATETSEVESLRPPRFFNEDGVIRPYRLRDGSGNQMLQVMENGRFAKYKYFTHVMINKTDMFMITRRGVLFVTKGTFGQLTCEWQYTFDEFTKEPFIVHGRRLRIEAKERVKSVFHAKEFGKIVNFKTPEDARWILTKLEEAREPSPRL"},
  "source": "paper PMC10813020",
  "binders": {"B1": {"name": "isocitrate dehydrogenase 3 subunit alpha (IDH3A) (protein, UniProt Q9D6R2 28-366)", "chain": "AGGVQTVTLIPGDGIGPEISASVMKIFDAAKAPIQWEERNVTAIQGPGGKWMIPPEAKESMDKNKMGLKGPLKTPIAAGHPSMNLLLRKTFDLYANVRPCVSIEGYKTPYTDVNIVTIRENTEGEYSGIEHVIVDGVVQSIKLITEEASKRIAEFAFEYARNNHRSNVTAVHKANIMRMSDGLFLQKCREVAENCKDIKFNEMYLDTVCLNMVQDPSQFDVLVMPNLYGDILSDLCAGLIGGLGVTPSGNIGANGVAIFESVHGTAPDIAGKDMANPTALLLSAVMMLRHMGLFDHAAKIEAACFATIKDGKSLTKDLGGNAKCSDFTEEICRRVKDLD"}, "B2": {"name": "glutathione S-transferase mu 5 (GSTM5) (protein, UniProt P48774 1-224)", "chain": "MSSKSMVLGYWDIRGLAHAIRMLLEFTDTSYEEKRYICGEAPDYDRSQWLDVKFKLDLDFPNLPYLMDGKNKITQSNAILRYIARKHNMCGDTEEEKIRVDIMENQIMDFRMQLVRLCYNSNHENLKPQYLEQLPAQLKQFSLFLGKFTWFAGEKLTFVDFLTYDVLDQNRIFEPKCLDEFPNLKAFMCRFEALEKIAAFLQSDRFFKMPINNKMAKWGNKCLC"}, "B3": {"name": "acetyl-CoA acetyltransferase 1 (ACAT1) (protein, UniProt Q8QZT1 31-424)", "chain": "ASKPTLNEVVIVSAIRTPIGSFLGSLASQPATKLGTAAIQGAIEKAGIPKEEVKEVYMGNVIQGGEGQAPTRQATLGAGLPISTPCTTVNKVCASGMKAIMMASQSLMCGHQDVMVAGGMESMSNVPYVMSRGATPYGGVKLEDLIVKDGLTDVYNKIHMGNCAENTAKKMNISRQEQDTYALSSYTRSKEAWDAGKFASEITPITISVKGKPDVVVKEDEEYKRVDFSKVPKLKTVFQKENGTITAANASTLNDGAAALVLMTAEAAQRLNVKPLARIAAFADAAVDPIDFPLAPAYAVPKVLKYAGLKKEDIAMWEVNEAFSVVVLANIKMLEIDPQKVNIHGGAVSLGHPIGMSGARIVVHMAHALKPGEFGLASICNGGGGASALLIEKL"}},
  "note": "No constants are given. Whether binding was seen depends on the method and setting. Binding seen in cells or lysates may run through a third protein. These calls come from enrichment with a bait or labelling near it, and not all partners need be listed. Where a sequence is shown, tags or fusion partners need not be part of it.",
  "data": [
    {"target": "chorein (VPS13A, vacuolar protein sorting 13 homolog A) (mouse (endogenous in epididymal sperm)) (UniProt Q5H8C4)", "assay": "affinity purification with mass spectrometry; anti-chorein antibody on Dynabeads Protein G; 500 µg soluble fraction of wild-type mouse epididymal sperm lysate (1% NP-40), 10 min at room temperature, three washes with lysis buffer; eluate by SDS-PAGE, in-gel trypsin digestion, nano-LC-MS/MS; IgG co-IP as negative control; hits chosen by spectral count", "values": [
      {"binder": "B1", "binding": "binds"},
      {"binder": "B2", "binding": "binds"},
      {"binder": "B3", "binding": "binds"}
    ]}
  ]
}
